Measurements taken from PubChem BioAssay AID1307 (SRMLSC, 2008).
Fewer than 10 of roughly 1,200 compounds were called active.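 The calls were made as follows: active = inhibition reaching a set limit at one or more tested concentrations; inactive = inhibition under that limit at every dose.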 Some of the results follow. Measured potencies and affinities stand elsewhere.

experiment: yeast RAM network inhibitors, dose response, S. cerevisiae (AID 1307);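 also: 0% = DMSO vehicle wells and 100% = 10 µM 1-NA-PP1 control; higher inhibition means more yeast growth since RAM block rescues cells from 5-FOA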; details: S. cerevisiae RAM network URA3 reporter, 5-FOA growth OD615, stronger effect = higher value, yeast express analog-sensitive mutant Cbk1 kinase; at 100 µM unless noted

Max inhibition, inactive:
CSc1nc(Cl)c(Cc2ccc(OC(C)C)cc2)c(N2CCOCC2)n1 2.79% [at 0.196 µM], Brc1ccc(-c2csc(N3CCc4ccccc4C3)n2)cc1 3.05% [at 0.782 µM], O=C(CSc1ccc(Cl)cc1)N1CCN(c2c(Cl)cccc2[N+](=O)[O-])CC1 2.4% [at 50 µM], CC(=O)Nc1ccc(-c2cc(-c3ccc(NC(C)=O)cc3)nc(-c3ccc(NC(C)=O)cc3)n2)cc1 13.5%, CCOC(=O)C(C)Sc1nc2c(c(-c3cccs3)c1C#N)CCC2 (centres undefined) 3.89% [at 50 µM], C=CCn1c(C)cc(C(=O)COC(=O)/C=C/c2cccc(OC)c2)c1C 4.35%, C=CCn1c(-c2cccn(Cc3ccc(Cl)cc3)c2=O)n[nH]c1=S 12.1%, CCOc1cc(S(=O)(=O)Nc2ccc(CC)cc2)ccc1Cl 1.93% [at 0.782 µM], O=C1CCC(/C=C/c2ccccc2)=NN1Cc1ccccc1Cl 2.92% [at 0.391 µM], CCC(C)COC(=O)C(C#N)c1nc2ccccc2nc1N1CCCCC1 (centres undefined) 5.11% [at 50 µM], Cc1ccc(OCc2nc(C#N)c(NCc3ccc4c(c3)OCO4)o2)cc1 1.66% [at 1.563 µM], COc1ccc(-c2c/c(=N\c3nc(-c4ccccc4)c(C)s3)c3ccccc3o2)cc1O 10.1%, COc1ccc(CNc2oc(-c3cccc4ccccc34)nc2C#N)cc1 2.85% [at 3.125 µM], O=C(Nc1ccc(Cl)c(Cl)c1)c1ccc(Cn2cc(Cl)cn2)cc1 1.04% [at 1.563 µM], CNC(=S)N(CCc1ccc(OC)c(OC)c1)Cc1cc2c(C)cc(C)cc2[nH]c1=O 3.29% [at 6.25 µM], CCC1(C)CC(CCNS(=O)(=O)c2ccc(C)cc2)(c2ccc(C)cc2)CCO1 (centres undefined) 3.04%, O=C(CSc1nc(SCC(=O)NCc2ccccc2)n(-c2ccccc2)n1)NCc1ccccc1 2.64% [at 0.196 µM], Cc1ccc(NC(=O)COC(=O)CCC(=O)c2ccc(C(C)(C)C)cc2)c([N+](=O)[O-])c1 2.67% [at 0.196 µM], COc1ccc(N(C)S(=O)(=O)c2cccc(C(=O)OCC(=O)Nc3sc4c(c3C#N)CCCCC4)c2)cc1 2.6%, CCOC(=O)CSc1nc2ccccc2c(=O)n1CC1CCCC1 2.89% [at 0.782 µM], Cc1ccc(S(=O)(=O)N2CCN(C(=O)C3COc4ccccc4O3)CC2)cc1C (centres undefined) 2.29% [at 12.5 µM], CCOP(=O)(OCC)c1nc(-c2cccc3ccccc23)oc1NCc1ccc(OC)cc1 6.12%, CCOC(=O)c1c(C)[nH]c(C)c1C(=O)COC(=O)/C=C/c1ccc(Cl)cc1 2.07% [at 0.391 µM], Cc1ccc(C(=O)c2c(NC(=O)c3ccccc3)sc(C)c2C)cc1 4.08% [at 3.125 µM], CCCCOn1c(C)c(C(=O)OCC)c2c3no[n+]([O-])c3ccc21 2.31%, COc1cccc(NC(=S)N(Cc2ccc(Cl)cc2)Cc2ccc(C(=O)O)cc2)c1 3.88%, CCOC(=O)c1cccc(NC(=O)CSc2nnc(COc3ccccc3)n2CC)c1 0.96% [at 0.782 µM], CCc1ccc(C(=O)COC(=O)C(Cc2ccccc2)NC(=O)c2ccc(Cl)cc2)cc1 (centres undefined) 1.81% [at 50 µM], CCC(C)[C@@H](CN(N=O)[C@@H](Cc1ccccc1)CN(C)N=O)N(CCc1ccccc1)N=O (some centres undefined) 6.08% [at 0.196 µM], Cc1cccc(C)c1OCC(O)Cn1c2ccccc2c2ccccc21 (centres undefined) 6.83% [at 50 µM], COc1cc(C(c2sc3nc(C)nn3c2O)N2CCN(c3ccccc3)CC2)cc(OC)c1OC (centres undefined) 3.1% [at 0.196 µM], CCCCOC(=O)c1ccc(NC(=O)/C=C/c2cccs2)cc1 6.49%, COc1cc(CNC(=O)c2cccc(COc3ccc(Cl)cc3)c2)cc(OC)c1 3.27% [at 0.391 µM], O=C1/C(=C/c2ccc3c(c2)OCO3)CCC/C1=C\c1ccc2c(c1)OCO2 2.28% [at 50 µM], CCCCn1c(NS(=O)(=O)c2ccc(C)cc2)c(S(=O)(=O)c2ccccc2)c2nc3ccccc3nc21 25.5%, O=c1ccc(/C=C/c2ccccc2)nn1Cc1ccc(Cl)cc1Cl 2.4% [at 50 µM], CCCc1cc(C(=O)OC)c(NC(=O)c2cc(C)on2)s1 4.53% [at 6.25 µM], CCOC(=O)c1c(NC(=O)COC(=O)CCS(=O)(=O)c2ccc(C)cc2)sc(C)c1C 2.54% [at 1.563 µM], COC(=O)CCSc1cc([N+](=O)[O-])cc2c1c(C1OCCS1)nn2-c1ccccc1 (centres undefined) 4.5% [at 1.563 µM], CC(C)=CCc1c(O)c(CC=C(C)C)c2c(c1O)C(=O)CC(c1ccc(O)cc1)O2 (centres undefined) 7.82% [at 50 µM], COc1ccc(C(=O)/C=C/Nc2ccc(S(=O)(=O)Nc3onc(C)c3C)cc2)cc1 13.4%, O=[N+]([O-])c1ccc(N/N=C/c2sc(N3CCOCC3)nc2-c2ccccc2)c(S(=O)(=O)Nc2ccc(Cl)cc2)c1 8.74%, CN(C)c1ccnc2sc3c(SCc4ccc(Cl)cc4)ncnc3c12 7.85%, N#C/C(=C\C1=C(N2CCOCC2)C(=C/c2cccc([N+](=O)[O-])c2)/CC1)C(=O)Nc1ccccc1F 6.56%, CON/C=C(\C=Nc1ccc(Cl)cc1Cl)c1ncc(C(F)(F)F)cc1Cl 3.96% [at 50 µM], C=CCOC(=O)/C(=C/c1cccc2ccccc12)NC(=O)c1ccccc1 4.24%, CCCCCCNC(=O)CC(c1ccccc1)c1cc(Br)ccc1O (centres undefined) 2.95%, COc1ccc(O[C@H]2C=C[C@@H](c3ccccc3)O[C@@H]2CO/N=C(\C)CCC(=O)OC[C@H]2O[C@H](c3ccccc3)C=C[C@@H]2Oc2ccc(OC)cc2)cc1 6.56%, O=C(/C=C/c1ccc2c(c1)OCO2)NCCSCc1c(Cl)cccc1Cl 2.2% [at 25 µM], COC(=O)c1sccc1NC(=O)c1csc2c1CCCC2 2.81%, O=C(NCc1ccc(F)cc1)c1ccc(S(=O)(=O)Nc2cccc(C(F)(F)F)c2)cc1 3.97% [at 0.391 µM], COc1ccc(/C=C/C(=O)c2ccc(Cl)cc2)c(OC)c1 2.43% [at 50 µM], O=C(NCc1ccccc1)c1ccc(S(=O)(=O)N2CCCc3ccccc32)cc1 2.24%, O=C(Nc1ccccc1-c1nnc(SCc2ccccc2Cl)o1)c1ccccc1 2.67% [at 50 µM], COc1ccc(C(=O)NC(=S)Nc2ccc(N3CCCC3)cc2)cc1OC 5.31%, COc1ccc(-c2ccc(-c3noc(-c4ccccc4C)n3)c(OC)n2)cc1 4.43% [at 6.25 µM], CCCC(=O)OCCNc1cc(SCc2ccco2)c2nonc2c1[N+](=O)[O-] 4% [at 50 µM], COC(=O)Cc1ccc(N(Cc2ccccc2F)S(=O)(=O)c2ccc(Cl)cc2)cc1 2.03% [at 6.25 µM], CCN(CC(O)CON=C1c2ccccc2-c2ccccc21)S(=O)(=O)c1ccc(Cl)cc1 (centres undefined) 4.62% [at 50 µM], C=CCOC(=O)C1=C(C)NC(C)=C(C(=O)OCC=C)C1/C=C/c1ccccc1 4.5%, CN(C)S(=O)(=O)c1cccc(NC(=O)COC(=O)C2(c3ccccc3F)CCCC2)c1 2.82% [at 0.782 µM], CCN(Cc1ccccc1)S(=O)(=O)c1ccc(S(=O)(=O)N(Cc2cccc(OC)c2)CC2CCCO2)cc1 (centres undefined) 3.17% [at 6.25 µM], O=C(/C=C/c1cccc([N+](=O)[O-])c1)NCCSCc1ccccc1Cl 1.79% [at 6.25 µM], COc1ccc(/C=C(\C#N)C(=O)NCCc2ccccc2)cc1OCc1ccccc1 4.42% [at 1.563 µM], CCCC1S/C(=N/N=C/c2ccc(C)cc2)N(Cc2ccc(OC)cc2)C1=O (centres undefined) 3.89% [at 50 µM], COc1ccc(C(=O)NNC(=O)C(Cc2ccc(O)cc2)NC(=O)c2ccccc2NC(=O)c2ccc(OC)cc2)cc1 (centres undefined) 3.19%, COc1ccc(N2CCN(c3oc(COc4ccc(Cl)cc4)nc3C#N)CC2)cc1 5.67%, CSc1ccccc1-c1nnc(-c2ccc(C)cc2)o1 1.92% [at 50 µM], CCCCOC(=O)c1ccc(NC(=S)NC(=O)c2c(Cl)cnn2C)cc1 6.83% [at 50 µM], COc1ccc(CN(CCC(c2ccccc2)c2ccco2)C(=O)c2ccco2)cc1 (centres undefined) 4.81% [at 6.25 µM], CCOC(=O)c1sc(NC(=O)/C=C/c2cnn(CC)c2C)c(C(=O)OCC)c1C 1.66% [at 3.125 µM], CCOC(=O)c1c(NC(=O)CSc2nnc(-c3ccco3)o2)sc(C)c1C 4.63% [at 0.391 µM], O=C(NCc1ccccc1)C1=C[C@@H](C2CCCCC2)C[C@@H](OCc2ccc(CO)cc2)O1 3.21% [at 0.196 µM], CC(C)CNC(=O)c1c(N)n(/N=C/c2ccccn2)c2nc3ccccc3nc12 2.07% [at 0.196 µM]
